# According to publication PMC12670160, “A drug-repurposing screen of FDA- and EMA-approved drugs identifies two NF-κB inhibitors active against eumycetoma” (Journal of Antimicrobial Chemotherapy, 2025):
# Where a name gives a salt, the structure may show the parent alone. In all, about 5,300 compounds went through this assay and about 130 (2.5%) showed an effect of 50% or more. Some of the results follow.
# Tested on: M. mycetomatis strain mm55
# Details: primary screen, metabolic activity vs growth control; 96 h, 2 µM; inhibitor
row,Structure (SMILES),% viability [%]
1,"CN(C)CCCNC(=O)c1ccc(-c2cc(O)c3ncccc3c2)cc1 [ONC0001031, ml324]",68.82
2,"COC(=O)[C@H]1[C@@H](C)[C@@H](OC)C=CO[C@@]2(C)Oc3c(C)c(O)c4c(O)c(cc(O)c4c3C2=O)NC(=O)/C(C)=C\C=C/[C@@H](C)[C@@H](O)[C@@H](C)[C@H](O)[C@@H]1C [ONC0003453, rifamycin sv sodium salt]",53.39
3,"CN[C@@H](C)[C@H]1[C@H](O)C[C@@]2(C)[C@@H]3CC[C@H]4C(C)(C)[C@@H](NC)CC[C@@]45C[C@@]35CC[C@]12C [ONC0004659, cyclovirobuxin d bebuxine]",83.37
4,"CN1CCN(CCCN2c3ccccc3Sc3ccc(S(=O)(=O)N(C)C)cc32)CC1 [ONC0002303, thioproperazine]",65.7
5,"O=c1[nH]c(=O)n([C@H]2CCCO2)cc1F [ONC0004801, tegafur ft207 nsc 148958]",103
6,"C[C@@H]1CC[C@@]2(NC1)O[C@H]1C[C@H]3[C@@H]4CC=C5C[C@@H](O[C@@H]6O[C@H](CO)[C@@H](O[C@@H]7O[C@@H](C)[C@H](O)[C@@H](O)[C@H]7O)[C@H](O)[C@H]6O[C@@H]6O[C@@H](C)[C@H](O)[C@@H](O)[C@H]6O)CC[C@]5(C)[C@H]4CC[C@]3(C)[C@H]1[C@@H]2C [ONC0001969, solamargine]",78.42
7,"O=C(Nc1cc(Cl)cc(Cl)c1O)c1c(O)c(Cl)cc(Cl)c1Cl [ONC0004299, oxyclozanide]",65.63
8,"O=C(O)Cc1ccccc1Nc1c(Cl)cccc1Cl [ONC0000586, diclofenac sodium]",89.74
9,C[C@@H](c1ncncc1F)[C@](O)(Cn1cncn1)c1ccc(F)cc1F [Voriconazole],2.12
10,"Cc1nn(C)c2nc(NNC(=O)Nc3cc(Cl)nc(Cl)c3)cc(C(C)C)c12 [ONC0003603, jte013]",86.58
11,"CC(C)Cc1ccc([C@H](C)C(=O)O)cc1 [ONC0003786, dexibuprofen]",58.31
12,"CO/N=C(\C(=O)N[C@@H]1C(=O)N2C(C(=O)[O-])=C(C[n+]3ccn4ncccc43)CS[C@H]12)c1nsc(N)n1 [ONC0002043, cefozopran hydrochloride]",83.34
13,"CS(=O)(=O)c1ccc([C@@H](O)[C@@H](CO)NC(=O)C(Cl)Cl)cc1 [ONC0002832, thiamphenicol]",90.05
14,"Cc1cncc(CN2CCC(=C3c4ccc(Cl)cc4CCc4cccnc43)CC2)c1 [ONC0005226, rupatadine fumarate]",94.75

# Part of the list above in order of number of heavy atoms, low to high:
row,Structure (SMILES),% viability [%]
7,"O=C(Nc1cc(Cl)cc(Cl)c1O)c1c(O)c(Cl)cc(Cl)c1Cl [ONC0004299, oxyclozanide]",65.63
9,C[C@@H](c1ncncc1F)[C@](O)(Cn1cncn1)c1ccc(F)cc1F [Voriconazole],2.12
2,"COC(=O)[C@H]1[C@@H](C)[C@@H](OC)C=CO[C@@]2(C)Oc3c(C)c(O)c4c(O)c(cc(O)c4c3C2=O)NC(=O)/C(C)=C\C=C/[C@@H](C)[C@@H](O)[C@@H](C)[C@H](O)[C@@H]1C [ONC0003453, rifamycin sv sodium salt]",53.39
